Results are given in words; binding and its absence hold for the method and conditions named. Some entries that bind do so weakly or less than the wild type.
Experiments:
[1] = molecular target: polyhistidine-tagged LGALS3 (human) (UniProt P17931); assay: ELISA, nickel-coated plate with polyhistidine-tagged LGALS3
[2] = molecular target: polyhistidine-tagged LGALS3 (human) (UniProt P17931); assay: ELISA, nickel-coated plate, His-tagged LGALS3 500 ng/well, goat anti-mouse IgG1-HRP

Chains of the proteins cited; added tags and fusions are not shown. Lines headed by an entry give the natural chain unless they say otherwise; changes in a name come on top.
UniProt P17931: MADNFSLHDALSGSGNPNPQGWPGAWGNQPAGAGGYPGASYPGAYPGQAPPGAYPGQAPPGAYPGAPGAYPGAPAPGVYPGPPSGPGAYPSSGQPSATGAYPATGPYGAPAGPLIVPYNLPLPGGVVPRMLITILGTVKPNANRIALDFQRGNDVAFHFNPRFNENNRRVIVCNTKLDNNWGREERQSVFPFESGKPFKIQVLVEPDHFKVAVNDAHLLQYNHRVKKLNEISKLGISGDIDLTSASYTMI

B1: 112516.14D11.2D2 (antibody, V domains shown)
VH: QVQLKESGPGLVAPSQSLSITCTISGFSLSSYGVHWVRQPPGKGLEWLVVIWSDGSTTYNSTLKSRLSISKDNSKSQVFLKMNSLQTDDTAMYYCARHISNYGTMDYWGQGTSVTVS
VL: DIQMTQTTSSLSASLGDRVTISCRASQDIRNYLNWYQQKPDGSIKLLIYYTSRLHSGVPSRFSGSGSGTDYSLTIRNLEQEDIATYFCQHFNTLPPTFGGGTKLEIK
- binding [1]: binds
- binding [2]: binds

From US20210032350A1 (Memorial Sloan Kettering, published 2021)
